# Values quoted from earlier work as cited in US20220142957A1, “TERPENE BASED THERAPEUTIC DEEP EUTECTIC SYSTEM, METHOD OF OBTAINING AND USES THEREOF” (priority 2019, published 2022).
# Conditions: cited from earlier work
compound,measurement,value
"CC(C)Cc1ccc(C(C)C(=O)O)cc1 (stereo not shown) [IBU, Ibuprofen]",solubility in water,≈ 2 mg mL^−1
